Laboratory results reported in paper PMC9104387.
For at least one entry, the source does not settle the construct or the ends of the probe. For part of these data: No signal at the amounts used counts as a negative.

Columns and labels:
[1] = test system: RpTOE1 (Robinia pseudoacacia); experiment: EMSA; conditions: Chemiluminescent EMSA kit (Beyotime), 6% polyacrylamide gel; pH and temperature not stated; recombinant protein; protein details: His (pET-28a); label: 3'-biotin
[2] = test system: RpTOE1 (Robinia pseudoacacia); experiment: competition with a labelled probe; conditions: competes with labeled Probe, dose-dependent (EMSA); Chemiluminescent EMSA kit (Beyotime), 6% polyacrylamide gel; pH and temperature not stated; recombinant protein; protein details: His (pET-28a)

Row | Sequence | binding result [1] | binding result [2]
1 | TTGGAGATTCCTCCATTGCAACCTAAAATCCTTTGGTGGACCAAT (double strand) [Probe (RpFT promoter, TBS-like)] | binds | –
2 | TTGGAGATTCCTCCATTGCAACCTAAAATCCTTTGGTGGACCAAT (double strand) [unlabeled Probe (cold competitor)] | – | binds
3 | TTGGAGATTCCTCCATTGCGGGGGGGAATCCTTTGGTGGACCAAT (double strand) [mProbe (TBS-like to GGGGGGG)] | no binding | –
